Data as given in PMC7819943, “Rice protein-binding microarrays: a tool to detect cis-acting elements near promoter regions in rice”.
The other results are listed elsewhere or left out.

The chains behind the UniProt entries cited, without tags or fusion partners.
UniProt Q0JBA9, entry or part of it: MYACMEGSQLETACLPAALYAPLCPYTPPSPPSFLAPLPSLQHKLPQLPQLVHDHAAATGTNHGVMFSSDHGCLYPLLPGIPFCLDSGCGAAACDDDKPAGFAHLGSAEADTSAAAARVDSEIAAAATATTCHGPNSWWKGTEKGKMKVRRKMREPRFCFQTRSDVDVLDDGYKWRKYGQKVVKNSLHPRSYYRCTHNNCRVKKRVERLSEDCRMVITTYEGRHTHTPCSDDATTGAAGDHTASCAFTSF

Target: OsWRKY34 (Oryza sativa, UniProt Q0JBA9 1-250)
Assay: protein-binding microarray (RPBM); PBS, 2% BSA, 51.3 ng/ul salmon testes DNA, 50 uM zinc acetate, 200 nM TF, 25 C, 1 h; high values mean tight binding
Conditions: protein: recombinant; tags: N-terminal polyhistidine and DsRed monomer fusion (pET32a); label: CyDye5-dUTP incorporated in the synthesized complementary strand; 3' TTTTT single-stranded linker to array surface; dsDNA, one strand shown
Outline: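 The binding signal is fluorescence intensity per feature, in arbitrary units, read on an Axon 4000B scanner. Polyhistidine- and DsRed-tagged transcription factors (N-terminal fusions) from E. coli BL21-CodonPlus were purified on Ni–NTA and applied at 200 nM for 1 h at 25 °C to a double-stranded, BSA-blocked custom Agilent array in buffer with 50 µM zinc acetate.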

Q: For “TTCTCCCGCTGACCACCTACCTATCTGTATTTGTAATTAACGGAGTCACCTAGTGCAG”, which binding signal is on record?
A: The binding signal was 13300 fluorescence intensity (a.u.).

Q: “CTCCTTGGACGCGTTGTTTTTGCATACCCCTTTCGTTTCCCGGAGTCACCTAGTGCAG” was tested. Which binding signal did it give?
A: Its binding signal is 14700 fluorescence intensity (a.u.).

Q: How did the binding signal turn out when “TAGATCGCCGCCGCCGCCGTCGTCTCCGCCCCTCTCCAGCCGGAGTCACCTAGTGCAG” was run?
A: Its binding signal is 8940 fluorescence intensity (a.u.).

Q: Which binding signal does the source give for “GACTGCGCCGTCGCCGCGCCAGCCCGGCCGCCTGCCCGCGCGGAGTCACCTAGTGCAG” here?
A: Its binding signal is 9810 fluorescence intensity (a.u.).

Q: Which binding signal does the source give for “TTTGTGGTTTAGGGTCATGTATTAGATTTCGATCACTTTTCGGAGTCACCTAGTGCAG” here?
A: Its binding signal is 12200 fluorescence intensity (a.u.).

Q: “CATCAGTCGTTAGGGTCGGCACAGCATCTCCATTTTGCTACGGAGTCACCTAGTGCAG” was tested. Which binding signal did it give?
A: The binding signal was 9850 fluorescence intensity (a.u.).

Q: Which binding signal does the source give for “CCCTGCCTCTCTCTCGTCGCCGCTCGTCCACCGCTGCCTCCGGAGTCACCTAGTGCAG” here?
A: The binding signal was 13800 fluorescence intensity (a.u.).

Q: For “TTTGCCTCCTTGCATCCAACCTTCCCAATTGCCCAGTCTACGGAGTCACCTAGTGCAG”, which binding signal is on record?
A: Its binding signal is 9410 fluorescence intensity (a.u.).

Q: For “AATAGTGGTGGTTGGTTATAAAGATTTGCTGCAATGTTTCCGGAGTCACCTAGTGCAG”, which binding signal is on record?
A: Its binding signal is 8620 fluorescence intensity (a.u.).

Q: For “ACGAATTGGGAGGGGTAAAATGGCATAATGGTAATTAATACGGAGTCACCTAGTGCAG”, which binding signal is on record?
A: Its binding signal is 10900 fluorescence intensity (a.u.).

Q: For “CGCACTAGAAGTTCTAACAACATCAGCTACTAGGGACCTTCGGAGTCACCTAGTGCAG”, which binding signal is on record?
A: Its binding signal is 8380 fluorescence intensity (a.u.).

Q: Which binding signal does the source give for “CCTTTTGGCCGGGCACGGCTACCGCTTCTGAATTATACTACGGAGTCACCTAGTGCAG” here?
A: Its binding signal is 9810 fluorescence intensity (a.u.).

Q: With “ACCTGTTTCGTTCGTCCACGCCAGCGCCAACCGGACATGACGGAGTCACCTAGTGCAG” as the sequence, how does the binding signal read?
A: The binding signal was 9460 fluorescence intensity (a.u.).

Q: How did the binding signal turn out when “TAACACCATTGTCGCCCGGGACGCGCGCTCTTTCTCTCTCCGGAGTCACCTAGTGCAG” was run?
A: The binding signal was 12600 fluorescence intensity (a.u.).

Q: With “TTTTATAACATGTTTGTTTTGTACTAATATTTATTTTTTCCGGAGTCACCTAGTGCAG” as the sequence, how does the binding signal read?
A: Its binding signal is 9760 fluorescence intensity (a.u.).

Q: Which binding signal does the source give for “ATATATAAACTGTGCAATTAATTTTTTTTATCTATATATTCGGAGTCACCTAGTGCAG” here?
A: Its binding signal is 9030 fluorescence intensity (a.u.).

Q: “TCCTTTCATTTTTCCTTCTCCTTCGCGTGAAAAACGGACGCGGAGTCACCTAGTGCAG” was tested. Which binding signal did it give?
A: The binding signal was 9480 fluorescence intensity (a.u.).

Q: How did the binding signal turn out when “GCTGTTAGTCCAGTGGCAGTTATGTTAGTTTCATACTGTTCGGAGTCACCTAGTGCAG” was run?
A: The binding signal was 10100 fluorescence intensity (a.u.).

Q: For “TTATCTTGATTGACACGTGGTTTGTTGATGCAGATGGTTTCGGAGTCACCTAGTGCAG”, which binding signal is on record?
A: The binding signal was 9290 fluorescence intensity (a.u.).

Q: With “GAAATGGTGGTGGGGTGGTTGCCGTTGCCATCCACGACGACGGAGTCACCTAGTGCAG” as the sequence, how does the binding signal read?
A: The binding signal was 13900 fluorescence intensity (a.u.).

Q: How did the binding signal turn out when “AAATAATTTATACTCAATTAATCATGCGCTAATAGCTACTCGGAGTCACCTAGTGCAG” was run?
A: Its binding signal is 8180 fluorescence intensity (a.u.).

Q: Which binding signal does the source give for “GCGGTTTGTATTTGCTGGCTGGTTTGGTTTCCACGCCCTCCGGAGTCACCTAGTGCAG” here?
A: The binding signal was 8170 fluorescence intensity (a.u.).

Q: How did the binding signal turn out when “CTACATATAAGCACGGCTCATCACTTTGCCATCCAACAATCGGAGTCACCTAGTGCAG” was run?
A: Its binding signal is 12000 fluorescence intensity (a.u.).

Q: With “GCTCTCAATTCAATCTCGCTTAATTCGATCGTCTTCTTCCCGGAGTCACCTAGTGCAG” as the sequence, how does the binding signal read?
A: The binding signal was 9570 fluorescence intensity (a.u.).

Q: For “CCAACATCTCGTTCTCACCTCTCACTCCTCTCGTCGTCTTCGGAGTCACCTAGTGCAG”, which binding signal is on record?
A: The binding signal was 9400 fluorescence intensity (a.u.).

Q: With “GCTTGTTGCTCTCCTCGCGTGAGCTCTCTCCTCCTCTTCTCGGAGTCACCTAGTGCAG” as the sequence, how does the binding signal read?
A: Its binding signal is 10900 fluorescence intensity (a.u.).

Q: With “GACAAATTAGTTGTTGACTTATCACACCCTACCCCATCTCCGGAGTCACCTAGTGCAG” as the sequence, how does the binding signal read?
A: Its binding signal is 8540 fluorescence intensity (a.u.).

Q: “CAACGTCCCATTGCCACCTTTTATACTTCTACCTTCTTCACGGAGTCACCTAGTGCAG” was tested. Which binding signal did it give?
A: Its binding signal is 8940 fluorescence intensity (a.u.).

Q: “CATCCGCCTCTTCGGCACCACCCTCGTCTTCGTCGCCGACCGGAGTCACCTAGTGCAG” was tested. Which binding signal did it give?
A: The binding signal was 8140 fluorescence intensity (a.u.).

Q: For “TTTGTCTCCTGCGCCTTCGATGAAATACTTACAAGTCGATCGGAGTCACCTAGTGCAG”, which binding signal is on record?
A: Its binding signal is 9310 fluorescence intensity (a.u.).

Q: “ATTAAAATTTTCATACACCCATTTTATATGTTATCTCGAGCGGAGTCACCTAGTGCAG” was tested. Which binding signal did it give?
A: The binding signal was 8230 fluorescence intensity (a.u.).

Q: “AATTGGATTAATGTGATTTTTTTTCATGCAACATTACTATCGGAGTCACCTAGTGCAG” was tested. Which binding signal did it give?
A: The binding signal was 8900 fluorescence intensity (a.u.).

Q: With “GGGGAAAGTTGGTAGTTTGGAAAAAAAGTTGAAAGTTTATCGGAGTCACCTAGTGCAG” as the sequence, how does the binding signal read?
A: The binding signal was 8620 fluorescence intensity (a.u.).

Q: How did the binding signal turn out when “ATTGGGTTGGGTTGAGCAATCGATTGCGTTGTTGTTCTTGCGGAGTCACCTAGTGCAG” was run?
A: Its binding signal is 11400 fluorescence intensity (a.u.).

Q: “ACTATCAAATGCATCTCTAATTTAGTTTTTTTTATTCGGGCGGAGTCACCTAGTGCAG” was tested. Which binding signal did it give?
A: Its binding signal is 10000 fluorescence intensity (a.u.).

Q: With “TATGTTTTTTCGTGCTCAACTTTGATTGTCCATCTTATTTCGGAGTCACCTAGTGCAG” as the sequence, how does the binding signal read?
A: Its binding signal is 8310 fluorescence intensity (a.u.).

Q: “TAGAGTTGATTTTGAGGGTTTTTTCATCGTAGCTTATTTTCGGAGTCACCTAGTGCAG” was tested. Which binding signal did it give?
A: The binding signal was 9410 fluorescence intensity (a.u.).

Q: With “CGACCACCACCAAGCGAGCCCAGCAACAGTTTCACACTTTCGGAGTCACCTAGTGCAG” as the sequence, how does the binding signal read?
A: Its binding signal is 10100 fluorescence intensity (a.u.).

Q: Which binding signal does the source give for “CTTGCCGGCCTCCACCGCTAATGTTTGTGCACACAGAAAACGGAGTCACCTAGTGCAG” here?
A: Its binding signal is 8330 fluorescence intensity (a.u.).

Q: Which binding signal does the source give for “AACATTTACGTAATTATAATTTATTTTGTTATGAGTTGTTCGGAGTCACCTAGTGCAG” here?
A: The binding signal was 8830 fluorescence intensity (a.u.).

Q: With “GTAGTGCTAAAATTCTCTCATGTCTTCCTCTGCAACATATCGGAGTCACCTAGTGCAG” as the sequence, how does the binding signal read?
A: Its binding signal is 8390 fluorescence intensity (a.u.).

Q: How did the binding signal turn out when “ACATTTTACTTACACTGTTTGGCCACTCGTCTTATTTAAACGGAGTCACCTAGTGCAG” was run?
A: The binding signal was 9450 fluorescence intensity (a.u.).
